# Data: PubChem BioAssay AID540276 (National Center for Advancing Translational Sciences (NCATS), 2011)
# About 5,400 (1.8%) of roughly 300,000 compounds were called active. Inconclusive means that the source gave no clear call. Such entries were picked first, then a sample of the others. Calls come from the whole dose curve; tested in HEK293 cells. Where the call is inconclusive, the potency comes from a doubtful curve fit.
# Experiment: qHTS for inhibitors of binding or entry into cells for Marburg Virus
# Conditions: Marburg virus pseudotyped entry inhibition, cell reporter; activity change, negative = inhibition: at 37.8 µM (top of the series) unless noted
# % is set by controls: 0 for no effect and ±100 for the full control effect; potency is the fitted concentration of half-maximal effect.
SMILES,Potency,"activity change, negative = inhibition"
Cc1ccn2c(=O)nc(SCC(=O)c3ccc(Cl)cc3)nc2c1,"inconclusive: 35.5 µM [activator, single point]",
CC(C)OC(=O)c1ccc(NC(=O)Cn2c(-c3nonc3N)nc3ccccc32)cc1,,inactive: -19.4%
COc1ccc(Br)c(C(=O)OCc2cc(=O)oc3cc(C)ccc23)c1,"inconclusive: 35.5 µM [activator, single point]",
N#CCc1ccc(C(=O)c2ccccc2)s1,"inconclusive: 1.26 µM [activator, partial curve, poor fit]",
COc1ccc(C(=O)CCN2CCCCCC2)cc1,inactive,
O=C(NCc1ccc(F)cc1)Nc1ccc(Cl)cc1,,inactive: 3.46%
CCN(C(=O)CSc1nnc(-c2ccco2)n1Cc1ccccc1)C1CCS(=O)(=O)C1 (stereo not given),"inconclusive: 12.6 µM [inhibitor, single point]",
CN(C(=O)COC(=O)CNC(=O)c1ccc(C(C)(C)C)cc1)c1c(N)n(Cc2ccccc2)c(=O)[nH]c1=O,"inconclusive: 3.55 µM [activator, full curve, poor fit]",
Cc1ccc(CN(Cc2ccco2)C(=O)COc2ccc(Cl)cc2Cl)cc1,"inconclusive: 2 µM [activator, partial curve, poor fit]",
O=C(CN(C(=O)Cn1nnc(-c2cccs2)n1)c1ccc2c(c1)OCCO2)NCC1CCCO1 (stereo not given),,inactive: 2.53% [at 46.1 µM]
O=C(Nc1ccccc1)c1cc2ccccc2[nH]1,"inconclusive: 11.2 µM [activator, single point]",
CCOC(=O)C1(CCCc2ccccc2)CCN(C(=O)C2CCCN(C(N)=O)C2)CC1 (stereo not given),"inconclusive: 1.58 µM [inhibitor, partial curve, poor fit]",
COc1ccc([C@]23Cc4ccccc4[C@H](O2)c2c(cc(-c4ccccc4)oc2=O)O3)cc1,"inconclusive: 5.96 µM [activator, single point]",
COc1cccc(CNC(=O)c2ccc3c(c2)N(Cc2ccc(C(F)(F)F)cc2)C(=O)c2ccccc2S3)c1OC,"inconclusive: 3.16 µM [inhibitor, partial curve, poor fit]",
CN(C)C(=O)c1ccc(NC(=O)COC(=O)C2=COCCO2)cc1,"inconclusive: 2.51 µM [inhibitor, partial curve, poor fit]",
CCN1c2ccccc2N(C)C1(C)c1ccccc1 (stereo not given),"inconclusive: 35.5 µM [inhibitor, single point]",
O=C(NCc1ccco1)c1c[nH]c2ccc(S(=O)(=O)Nc3ccc(F)cc3F)cc2c1=O,"inconclusive: 3.98 µM [activator, single point]",
COc1cc(CNC2CCCC2)cc(Cl)c1OCc1ccccc1Cl,active: 10.3 µM,
O=C1C2C3C=CC(C3)C2C(=O)N1c1ccc2c(c1)CCC2 (stereo not given),,inactive: 14.4%
CN(C)S(=O)(=O)c1cccc(NC(=O)COC(=O)C2(c3ccccc3F)CCCC2)c1,"inconclusive: 11.2 µM [inhibitor, partial curve, poor fit]",
COCCNC(=S)N/N=C/c1ccc([N+](=O)[O-])cc1,,inactive: -5.01% [at 46.1 µM]
CC(C)(C)NC(=O)C(c1ccc(F)cc1)N(Cc1ccco1)C(=O)CCC(=O)Nc1ccccn1 (stereo not given),"inconclusive: 10 µM [inhibitor, partial curve, poor fit]",

SMILES,Potency,"activity change, negative = inhibition"
CC(=O)OC(=C(OC(C)=O)c1ccccc1)c1ccccc1,,inactive: -0.609% [at 46.1 µM]
C=CCN(Cc1nc(-c2ccc(OC)cc2)no1)C(=O)c1ccc2c(c1)OCO2,"inconclusive: 11.2 µM [inhibitor, single point]",
CN(C)c1ccc(N/C(=N\S(=O)(=O)c2cccs2)c2ccccc2)cc1,,inactive: 0.943%
CCn1nc(C)c(CNC(=O)CCc2nnc(-c3ccc(C(C)=O)s3)o2)c1C,,inactive: 2.1% [at 46.1 µM]
COCCn1c(SCC(=O)NCc2ccc3c(c2)OCO3)nc2ccccc2c1=O,"inconclusive: 3.55 µM [inhibitor, single point]",
O=c1[nH][nH]c(C(F)(F)F)c1C=NCc1cccc(Cl)c1,"inconclusive: 2 µM [inhibitor, full curve]",
CC(C)CCNC(=O)CN1C(=O)c2cccnc2Oc2ccccc21,,inactive: 7.92% [at 46.1 µM]
Cn1cc(Cl)c(C(=O)NNC(=S)NC2CCCCC2)n1,"inconclusive: 6.31 µM [activator, single point]",
COc1ccc(CCN(C)Cc2ccc(OCc3ccccc3)c(OC)c2)cc1OC,"inconclusive: 25.9 µM [inhibitor, single point]",
Cc1ccc2c(c1)c1c(n2CC(O)Cn2nc(C)c(Br)c2C)CCCC1 (stereo not given),"inconclusive: 29.1 µM [inhibitor, single point]",
Cc1ccc(COC(=O)CCN=C2NS(=O)(=O)c3ccccc32)cc1,"inconclusive: 31.6 µM [activator, single point]",
COc1ccc(S(N)(=O)=O)cc1C(=O)OCC(=O)NC(C)(C#N)C1CC1 (stereo not given),"inconclusive: 1.26 µM [inhibitor, single point]",
Nc1c(C(=O)Nc2ccccc2)sc2ncc([N+](=O)[O-])cc12,"inconclusive: 2.51 µM [activator, partial curve, poor fit]",
CCC(OCC(O)CN1CCN(CCN2C(=O)c3cccc4cccc(c34)C2=O)CC1)c1ccccc1 (stereo not given),"inconclusive: 13 µM [inhibitor, partial curve, poor fit]",
CCOc1ccc(NC(=O)C2CCCN(S(=O)(=O)c3c(C)noc3C)C2)cc1 (stereo not given),"inconclusive: 3.55 µM [inhibitor, single point]",
O=C(COC(=O)c1cccs1)NC1CCCC1,,inactive: 7.73% [at 46.1 µM]
CCOC(=O)/C=C/CCC/C=C/C(=O)c1ccccc1,"inconclusive: 0.299 µM [inhibitor, partial curve, poor fit]",
COc1ccc(CN(C(=O)CSc2nnc(-c3c[nH]c4ccccc34)o2)c2ccc(F)cc2)cc1OC,"inconclusive: 11.2 µM [inhibitor, partial curve, poor fit]",
COc1ccc(NC(=S)NC(NC(=O)c2ccccc2Cl)C(Cl)(Cl)Cl)c([N+](=O)[O-])c1 (stereo not given),"inconclusive: 23.1 µM [inhibitor, single point]",
CCc1cccc(CC)c1N(COC)C(=O)Cn1nnc2ccccc21,,inactive: -8.1%
COc1cc(C2C(C#N)=C(C)NC3=C2C(=O)CC(C)(C)C3)cc(OC)c1O (stereo not given),,inactive: 7.74%
CN(C1CCCCC1)S(=O)(=O)c1ccc(NC(=O)C2CCCCC2)cc1,"inconclusive: 20.6 µM [inhibitor, partial curve]",

# For reference, some entries already given.
SMILES,Potency,"activity change, negative = inhibition"
Cn1cc(Cl)c(C(=O)NNC(=S)NC2CCCCC2)n1,"inconclusive: 6.31 µM [activator, single point]",
COc1ccc(CCN(C)Cc2ccc(OCc3ccccc3)c(OC)c2)cc1OC,"inconclusive: 25.9 µM [inhibitor, single point]",
Cc1ccc2c(c1)c1c(n2CC(O)Cn2nc(C)c(Br)c2C)CCCC1 (stereo not given),"inconclusive: 29.1 µM [inhibitor, single point]",
Cc1ccc(COC(=O)CCN=C2NS(=O)(=O)c3ccccc32)cc1,"inconclusive: 31.6 µM [activator, single point]",

# Next part:

SMILES,Potency,"activity change, negative = inhibition"
Cc1cc(Cl)ccc1OCC(=O)NCCCn1ccnc1,"inconclusive: 35.5 µM [activator, single point]",
CCc1ccccc1NC(=O)C1CC(c2ccc(F)cc2)=NO1 (stereo not given),"inconclusive: 20.6 µM [inhibitor, single point]",
COc1ccc(/C=C2/SC(=O)N(CC(O)Cn3c4ccccc4c4ccccc43)C2=O)cc1 (stereo not given),"inconclusive: 1 µM [inhibitor, full curve, poor fit]",
CCC(=O)N1CCN(c2ccc(NC(=O)c3ccc(N4CCCC4)c([N+](=O)[O-])c3)cc2)CC1,"inconclusive: 35.5 µM [activator, single point]",
CCS(=O)(=O)c1nc2ccccc2n1CC(=O)Nc1ccccc1C(=O)OC,,inactive: 2.21% [at 46.1 µM]
CC1(C)CC(=O)C(C=NCCO)=C(O)C1,"inconclusive: 35.5 µM [inhibitor, single point]",
CN(C)C=NC(=O)c1cc(C(=O)c2ccc(Cl)cc2)c[nH]1,,inactive: 28.5% [at 46.1 µM]
CCCC(=O)Nc1cnc(NC(=O)c2cccc(F)c2)cc1C,"inconclusive: 11.2 µM [inhibitor, single point]",
CN1CCN(C(=O)c2cccc(NS(=O)(=O)c3ccc(Br)cc3)c2)CC1,"inconclusive: 6.31 µM [activator, single point]",
C/C(=N/NC(=O)c1cccnc1)C1=C(O)CC(C)(C)CC1=O,,inactive: -11.5%
O=C(O)C1CCCCC1C(=O)Nc1ccc(F)c(F)c1 (stereo not given),"inconclusive: 31.6 µM [activator, single point]",
CCN(Cc1ccccc1)S(=O)(=O)c1ccc(S(=O)(=O)N(Cc2cccc(OC)c2)CC2CCCO2)cc1 (stereo not given),"inconclusive: 29.1 µM [inhibitor, single point]",
Cc1ccc(OCC(=O)N(Cc2ccco2)Cc2ccco2)cc1,"inconclusive: 3.16 µM [inhibitor, single point]",
Cc1ccc(NC(=O)CSc2nc3ccccc3c3nc(CCn4cncc4C)nn23)c(C)c1,"inconclusive: 0.891 µM [inhibitor, partial curve, poor fit]",
O=C(CCCSc1nc2ccccc2s1)NCc1ccc2c(c1)OCO2,"inconclusive: 11.2 µM [inhibitor, single point]",
Cc1cccc(OCCCC(=O)NCCc2ccccc2)c1,"inconclusive: 1.16 µM [inhibitor, full curve, poor fit]",
COc1cccc(-c2nc(CS(=O)(=O)CC(=O)Nc3cc(F)ccc3F)c(C)o2)c1,"inconclusive: 12.6 µM [inhibitor, partial curve]",
Cn1c(SCC(=O)N/N=C/c2ccc([N+](=O)[O-])s2)nnc1-c1ccccc1,"inconclusive: 10 µM [inhibitor, partial curve, poor fit]",
COc1ccc(-c2cnnc(N/N=C/c3ccc(O)c(O)c3)n2)cc1,"inconclusive: 15.8 µM [inhibitor, single point]",
COc1ccc(NC(=O)N2CCN(c3cccc(C(F)(F)F)c3)CC2)cc1,"inconclusive: 0.259 µM [inhibitor, partial curve]",
O=C(NCc1ccccc1)C1CCCN(C(=O)c2ccc(F)cc2)C1 (stereo not given),,inactive: -0.613%
